Measurements as given in PubChem BioAssay AID540256 (National Center for Advancing Translational Sciences (NCATS), 2011).
About 3,700 (1.2%) of roughly 300,000 compounds were called active. The shares of active, inactive and inconclusive entries below differ from those in the screen. Calls come from the whole dose curve; tested in HEK293 cells. Potencies beside an inconclusive call are fits to weak or partial responses and may not hold up.

Assay: qHTS for Inhibitors of binding or entry into cells for Lassa Virus; note: nearly all actives have a fitted effect of over 50% in size
Settings: Lassa virus pseudotype entry inhibition, cell reporter; series mostly up to 37.9 µM
Potency is the fitted concentration of half-maximal effect.

SMILES | Potency
COc1ccc(C2=NOC(C(=O)NCC(C)C)C2)cc1 (stereo not given) | inconclusive: 18.3 µM [activator, partial curve, poor fit]
CCOc1ccc(-c2nnc(-c3ccco3)o2)cc1OCC | inactive
CCN1CCN(CCCOc2ccccc2-c2ccccc2)CC1 | inconclusive: 29.1 µM [inhibitor, single point]
Cc1cccc(OCC(=O)N(Cc2ccc(C(C)C)cc2)Cc2ccco2)c1C | inconclusive: 2 µM [inhibitor, full curve]
Cc1cccc(NCC(=O)N/N=C\c2ccc[nH]2)c1 | inconclusive: 4.47 µM [inhibitor, full curve]
O=C(CSc1ccc(-c2ccncc2)nn1)c1ccc(Cl)cc1 | inactive
O=C1c2ccccc2NC(c2ccc(-c3ccc(Br)cc3)o2)N1O (stereo not given) | inactive
COc1ccc(C(=O)n2nc(-c3ccccc3)nc2SC)cc1 | inactive
Cc1ccc(N2CC(NC(=O)c3ccco3)CC2=O)cc1C (stereo not given) | inactive
CC(C)(CN1CCN(C(c2ccccc2)c2ccccc2)CC1)NS(=O)(=O)c1ccccc1 | inconclusive: 10 µM [inhibitor, partial curve, poor fit]
COc1ccc(NS(=O)(=O)c2cc([N+](=O)[O-])ccc2N/N=C/c2c(C)[nH]c3ccccc23)cc1 | inactive
CCCSc1sc(C(=O)OC)c(-c2cccs2)c1C#N | inactive
CC(C)OC(=O)Nc1ccc2c(c1)N(C(=O)N1CCN(C)CC1)c1ccccc1CC2 | inconclusive: 22.4 µM [inhibitor, single point]
CCc1ccccc1OCC(=O)Nc1cc(S(=O)(=O)N2CCOCC2)ccc1N1CCCCC1 | inconclusive: 11.2 µM [inhibitor, partial curve, poor fit]
c1ccc(CC2CCN(c3nnnn3-c3ccccc3)CC2)cc1 | inconclusive: 10 µM [inhibitor, partial curve]
Cc1nn(C)c(C)c1S(=O)(=O)Nc1ccc2c(c1)OCO2 | inconclusive: 0.58 µM [activator, partial curve, poor fit]
COc1ccc(C2CC(=O)c3c([nH]c(C(=O)OC4CCCCCC4)c3C)C2)cc1OC (stereo not given) | inactive
CSc1nc(C)c(Oc2ccccc2)c(=O)n1C | inconclusive: 5.01 µM [activator, single point]
COc1ccc(-n2nnc(-c3nc(-c4ccccc4C)no3)c2N)cc1Cl | inconclusive: 11.2 µM [activator, single point]
COc1ccc(CCNC(=O)CC(c2ccccc2)c2cccc(C)c2O)cc1OC (stereo not given) | inconclusive: 11.2 µM [inhibitor, partial curve, poor fit]
Cc1sc2ccc3sccc3c2[n+]1C | inconclusive: 35.5 µM [inhibitor, single point]
CCOP(=O)(OCC)/C(C#N)=C/c1ccc([N+](=O)[O-])cc1 | inactive
C/C(=N\NC(=S)Nc1ccccc1C)c1cc2ccccc2o1 | inconclusive: 3.16 µM [inhibitor, partial curve, poor fit]
CCOC(=O)c1c(NC(=O)c2ccc(S(=O)(=O)N(C)CC3CCCO3)cc2)sc2c1CC(C)(C)NC2(C)C (stereo not given) | inconclusive: 10 µM [activator, single point]

SMILES | Potency
Cc1cc(-c2nnc(SCC(=O)Nc3c(C)cccc3C)n2N)n[nH]1 | inconclusive: 8.91 µM [activator, partial curve, poor fit]
CCOC(=O)c1c(C)nc(-c2ccccc2)nc1NC(C)=O | inconclusive: 10 µM [activator, single point]
CCOC(=O)c1cccc(NC(=O)C(Cc2ccccc2)NS(=O)(=O)c2cccc3nsnc23)c1 (stereo not given) | inconclusive: 14.1 µM [inhibitor, partial curve, poor fit]
COC(=O)c1ccc(CSc2nc3ccccc3c(=O)n2-c2cccc(OC)c2)o1 | inconclusive: 23.1 µM [inhibitor, partial curve]
C[C@H](NS(=O)(=O)c1ccccc1)C(=O)N1CCN(C(c2ccccc2)c2ccccc2)CC1 | inconclusive: 15.8 µM [inhibitor, single point]
CCC(C)c1ccc(C(C)NC(=S)NCc2ccc(F)cc2)cc1 (stereo not given) | inconclusive: 3.55 µM [inhibitor, full curve]
CC(=O)N1c2ccc(Cl)cc2C2C=CCC2C1c1cccc2ccccc12 (stereo not given) | inconclusive: 15.8 µM [inhibitor, single point]
CCc1ccccc1OCCSc1nnc(-c2cc(OC)c(OC)c(OC)c2)o1 | inactive
O=C(CN1C(=O)CCC1=O)c1ccc(-c2ccccc2)cc1 | inconclusive: 4.61 µM [activator, partial curve, poor fit]
Cc1cc(OCC(=O)NC(C)c2ccccc2)ccc1[N+](=O)[O-] (stereo not given) | inconclusive: 11.2 µM [inhibitor, partial curve, poor fit]
COC(=O)c1ccc(Cn2nnc3sc4c(c3c2=O)CCCC4)cc1 | inactive
O=C(CSc1nc2ccccc2s1)Nc1ccc2c(c1)oc1ccccc12 | inconclusive: 3.26 µM [activator, single point]
CCCn1c2ccccc2c2cnn(CC(=O)NCc3cc(OC)ccc3OC)c(=O)c21 | inactive
CN1CCN(C(=O)C2CCC(C)(C(=O)O)C2(C)C)CC1 (stereo not given) | inactive
CCOC(=O)C1CCN(c2nc3ccccc3nc2C(C#N)C(=O)OC(C)COC)CC1 (stereo not given) | inconclusive: 3.55 µM [inhibitor, single point]
O=C(c1ccc([N+](=O)[O-])o1)N1CCN(c2nc3ccc(F)cc3s2)CC1 | inconclusive: 6.31 µM [inhibitor, single point]
CCOC(=O)C(O)(c1cn(C)c2ccccc12)C(F)(F)F (stereo not given) | inconclusive: 1 µM [activator, single point]
CC1=NOC(=O)/C1=C\c1ccc(-c2cc(Cl)ccc2Cl)o1 | inactive
COc1ccc(-c2csc(N(CCCN(C)C)C(=O)c3ccccc3C)n2)cc1 | active: 10 µM
CCN(CC)c1cc(C)c2cc(NC(=O)c3ccc(Br)o3)ccc2n1 | inactive
COC(=O)c1c(NC(=O)CN2CCC3(O)CCCCC3C2c2cc(OC)ccc2OC)sc(C)c1C (stereo not given) | active: 7.94 µM
COc1ccc(NC(=O)Cc2ccsc2)cc1S(=O)(=O)N1CCCCC1 | inconclusive: 3.98 µM [inhibitor, partial curve, poor fit]
CS(=O)(=O)N1CCC(C(=O)Nc2ccc(Cl)c(C(F)(F)F)c2)CC1 | inconclusive: 6.51 µM [inhibitor, single point]
Cc1ccc(C)c(Nc2nc3nonc3nc2Nc2cccc(C)c2C)c1 | inconclusive: 20 µM [inhibitor, single point]

SMILES | Potency
CC(C)(C)c1ccccc1OCCCCCNCCO | inconclusive: 13 µM [inhibitor, single point]
O=C(NCCSCc1ccco1)Nc1ccc(Cl)cc1 | inactive
O=C1c2ccccc2C(=O)N1CC(O)COc1ccc(Cl)cc1 (stereo not given) | inactive
CCN1C=C(Cc2ccc(F)cc2)C2=C(C1)C(c1ccc(F)cc1)C(C#N)=C(N)O2 (stereo not given) | inconclusive: 35.5 µM [inhibitor, single point]
CO/N=C/c1ccc(Sc2ccc(C)cc2)c([N+](=O)[O-])c1 | inconclusive: 15.8 µM [inhibitor, single point]
Cc1c(/C=N/NC(=O)c2ccc(O)cc2)c2ccccn2c1C(=O)c1ccc(F)cc1 | active: 11.2 µM
O=C(N/N=C/c1ccc[nH]1)c1ccc2c(c1)OCO2 | inactive
O=C(c1cccc(S(=O)(=O)N2CCc3ccccc32)c1)N1CCN(CCO)CC1 | inactive
COc1cccc(Oc2nnnn2-c2ccccc2)c1 | inactive
O=C(CCC(=O)N1CCN(S(=O)(=O)c2ccc(Cl)cc2)CC1)Nc1ccc2ccccc2c1 | inconclusive: 5.01 µM [inhibitor, full curve]
Nc1c(C(=O)Nc2ccc(F)cc2)sc(=S)n1-c1ccccc1F | inconclusive: 0.631 µM [inhibitor, full curve, poor fit]
COCC1CCN(Cc2nc(-c3cccs3)no2)C1 (stereo not given) | inactive
CCn1nc(C)c2c(-c3ccccc3)cc(=O)n(C(C)C(=O)NCc3ccc(C)cc3)c21 (stereo not given) | inconclusive: 7.94 µM [inhibitor, partial curve, poor fit]
Cc1cc(C)c(NC(=O)c2ccccc2CCc2ccccc2)c(C)c1 | inconclusive: 11.6 µM [inhibitor, partial curve, poor fit]
CC(=O)Nc1ccc(NC(=O)CSc2nnc(-c3cccs3)n2N)cc1 | inactive
CCN(CC)S(=O)(=O)c1cccc(-c2nnc(-c3ccc(C)cc3)o2)c1 | inactive
Cc1cc(S(=O)(=O)NCC(c2ccc(N(C)C)cc2)N2CCOCC2)ccc1F (stereo not given) | inconclusive: 14.1 µM [inhibitor, single point]
CCC(=O)c1ccc(OCC(=O)Nc2ccc3c(c2)OCCO3)cc1 | inconclusive: 0.708 µM [activator, single point]
CCCCN1C(C)=CC(=C2C(=O)c3ccccc3C2=O)C=C1C | inconclusive: 8.91 µM [inhibitor, partial curve, poor fit]
CCCNS(=O)(=O)c1ccc(OCC(=O)N2CCc3ccccc3C2)c(C)c1 | inactive
Cc1ccc(OCC(=O)Nc2ccc3nc(Nc4cccc(Cl)c4)cc(C)c3c2)cc1 | inconclusive: 35.5 µM [activator, single point]
O=c1[nH]c(=O)n(Cc2ccccc2)c2nc(-c3ccco3)cc(C(F)(F)F)c12 | inconclusive: 20 µM [inhibitor, partial curve, poor fit]

In a second layout: results already given.
SMILES	Potency
Cc1c(/C=N/NC(=O)c2ccc(O)cc2)c2ccccn2c1C(=O)c1ccc(F)cc1	active: 11.2 µM
O=C(N/N=C/c1ccc[nH]1)c1ccc2c(c1)OCO2	inactive
O=C(c1cccc(S(=O)(=O)N2CCc3ccccc32)c1)N1CCN(CCO)CC1	inactive
COc1cccc(Oc2nnnn2-c2ccccc2)c1	inactive
O=C(CCC(=O)N1CCN(S(=O)(=O)c2ccc(Cl)cc2)CC1)Nc1ccc2ccccc2c1	inconclusive: 5.01 µM [inhibitor, full curve]
Nc1c(C(=O)Nc2ccc(F)cc2)sc(=S)n1-c1ccccc1F	inconclusive: 0.631 µM [inhibitor, full curve, poor fit]
